# From the supplement of paper PMC12024529
# Structures can show the parent of a compound that is named as a salt. Some of the results follow. Baselines shift from plate to plate; read single values as rough.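 The cells are HEK293 lines stably expressing B-domain-deleted factor VIII fused to Gaussia luciferase, either wild type or a misfolding-prone missense mutant. Each score is mean luminescence from triplicate wells minus the DMSO mean, divided by the DMSO standard deviation; a score of 2 or more counts as a hit, and low scores may reflect lower secretion or poorer cell viability.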
# Legend:
# HEK293 WT BDD-FVIII-Gluc = assay: secreted FVIII-Gluc luciferase Z-score vs DMSO control; higher = more FVIII-Gluc secretion; conditions: 5 µM; 24 h
# [1] = tested on: HEK293 p.N1941S BDD-FVIII-Gluc; assay: as above; conditions: 5 µM; 24 h
Compound,secreted FVIII-Gluc luciferase Z-score (HEK293 WT BDD-FVIII-Gluc),secreted FVIII-Gluc luciferase Z-score [1]
CCCCOc1ccc(OCCCN2CCOCC2)cc1 [Pramoxine HCl],inactive: 0.668,inactive: 1.34
CCOC(=O)N1CCC(=C2c3ccc(Cl)cc3CCc3cccnc32)CC1 [Loratadine],inactive: -6.87,inactive: -2.2
CCC(=O)NCC[C@@H]1CCc2ccc3c(c21)CCO3 [Ramelteon (TAK-375)],active: 2.22,inactive: 0.775
C[C@H]1C[C@H]2[C@@H]3CCC4=CC(=O)C=C[C@]4(C)[C@H]3C(=O)C[C@]2(C)[C@@]1(O)C(=O)CO [Betapar (Meprednisone)],inactive: 0.156,inactive: 0.746
Cc1ccc(Nc2nccc(N(C)c3ccc4c(C)n(C)nc4c3)n2)cc1S(N)(=O)=O [Pazopanib HCl],inactive: -2.71,inactive: -9.09
CC1=C(/C=C/C(C)=C/C=C/C(C)=C\C(=O)O)C(C)(C)CCC1 [Isotretinoin],active: 3.38,inactive: -0.857
CC(=O)O[C@]1(C(C)=O)CC[C@H]2[C@@H]3C=C(C)C4=CC(=O)CC[C@]4(C)[C@H]3CC[C@@]21C [Megestrol Acetate],inactive: -3.23,inactive: -3.18
CCc1cccc2c3c([nH]c12)C(CC)(CC(=O)O)OCC3 (stereo unspecified) [Etodolac (Lodine)],inactive: -4.59,inactive: -0.274
Cc1cc(C2CCCCC2)n(O)c(=O)c1 [Ciclopirox ethanolamine],inactive: -7.25,inactive: -1.37
CC[C@H]1OC(=O)[C@H](C)[C@@H](O[C@H]2C[C@@](C)(OC)[C@@H](O)[C@H](C)O2)[C@H](C)[C@@H](O[C@@H]2O[C@H](C)C[C@H](N(C)C)[C@H]2O)[C@](C)(O)C[C@@H](C)[C@@H]2N[C@@H](COCCOC)O[C@H]([C@H]2C)[C@]1(C)O [Dirithromycin],inactive: 0.746,inactive: -0.453
CCN(CC)CCOC(=O)C1(C2CCCCC2)CCCCC1 [Dicyclomine HCl],inactive: -1.25,inactive: -0.183
Cc1cccc(Nc2ccccc2C(=O)O)c1C [Mefenamic acid],inactive: -0.493,inactive: -0.115
CC[C@]1(O)C[C@@H]2CN(CCc3c([nH]c4ccccc34)[C@@](C(=O)OC)(c3cc4c(cc3OC)N(C)[C@H]3[C@@](O)(C(=O)OC)[C@H](OC(C)=O)[C@]5(CC)C=CCN6CC[C@]43[C@@H]65)C2)C1 [Vinblastine sulfate],inactive: -4.43,inactive: -5.12
OC[C@@H](O)[C@@H](O)[C@H](O)[C@@H](O)CO [Sorbitol (Glucitol)],inactive: 0.401,inactive: -0.435
C1N2CN3CN1CN(C2)C3 [Methenamine (Mandelamine)],inactive: -0.652,inactive: -0.268
O=C(Oc1ccccc1C(=O)O)c1ccccc1O [Sasapyrine],inactive: -4.14,inactive: 0.856
CS(=O)(=O)CCNCc1ccc(-c2ccc3ncnc(Nc4ccc(OCc5cccc(F)c5)c(Cl)c4)c3c2)o1 [Lapatinib Ditosylate (Tykerb)],inactive: -0.667,inactive: -5.67
OC[C@H]1O[C@H](O[C@]2(CCl)O[C@H](CCl)[C@@H](O)[C@@H]2O)[C@H](O)[C@@H](O)[C@H]1Cl [Sucralose],inactive: -0.413,inactive: -0.495
CC[C@@H]1C(=O)OC[C@@H]1Cc1cncn1C [Pilocarpine HCl],inactive: -0.4,inactive: -0.609
"CO[C@H]1/C=C/O[C@@]2(C)Oc3c(C)c(O)c4c(O)c(c(/C=N/N5CCN(C)CC5)c(O)c4c3C2=O)NC(=O)/C(C)=C\C=C\[C@H](C)[C@H](O)[C@@H](C)[C@@H](O)[C@@H](C)[C@H](OC(C)=O)[C@@H]1C [Rifampin (Rifadin, Rimactane)]",inactive: -1.18,inactive: -0.0868
Cc1nnc(C(=O)NC(C)(C)c2nc(C(=O)NCc3ccc(F)cc3)c(O)c(=O)n2C)o1 [Raltegravir (MK-0518)],inactive: -1.2,inactive: -0.504
Clc1ccc(C(c2ccccc2Cl)C(Cl)Cl)cc1 (stereo unspecified) [Mitotane (Lysodren)],inactive: -5.4,inactive: -0.882
CNC[C@H](O)c1ccc(O)c(O)c1 [Epinephrine bitartrate (Adrenalinium)],inactive: -0.185,inactive: -1.95

# One compound at a time (already shown). Values in the order: secreted FVIII-Gluc luciferase Z-score (HEK293 WT BDD-FVIII-Gluc) | secreted FVIII-Gluc luciferase Z-score [1]
# `C1N2CN3CN1CN(C2)C3` [Methenamine (Mandelamine)] as listed: inactive: -0.652 | inactive: -0.268
# `Cc1cc(C2CCCCC2)n(O)c(=O)c1` [Ciclopirox ethanolamine] as listed: inactive: -7.25 | inactive: -1.37
